PubChem BioAssay AID602196 | INSERM, 2012

Assay: 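Modifiers of cisplatin sensitivity in A549 cells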
System: human A549 lung cancer cells
Reagent: siRNA pair against human genes
Timing: 48 h transfection before cisplatin; time from cisplatin to read-out not stated
Challenge: cisplatin at a dose killing half of control-siRNA cells; exact dose and duration not given
Detection: 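Shift in cisplatin death relative to control siRNA, from -50 (all cells die) to +50 (no cells die); siRNAs harmful on their own scored 0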
Direction: two-siRNA summed score (-2 to +2): higher = both siRNAs protect from cisplatin killing; -2 means both sensitise
Rule for the call: 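Each siRNA scores 0 if harmful alone by LDH or WST-1, otherwise +1 if it reduces and -1 if it increases cisplatin killing; a gene is active when both siRNAs agree (sum +2 or -2)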
Calls: active = both siRNAs shift cisplatin killing the same way; inactive = no consistent shift, or siRNA harmful alone
In all, the deposit lists about 23,000 reagents; this is a part drawn at random. 455 of all reagents (2%) were called active. 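Active includes both protection and sensitisation; some change values fall well beyond the stated -50 to +50 range.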 A number with no mark means an inactive call. Not all columns of the deposit are shown. Reagent sequences are not shown. The record does not give: the amount of reagent.

HNRNPC showed two-siRNA summed score (-2 to +2) = 0. Depletion of RNF115 came out at: two-siRNA summed score (-2 to +2) = 0. CFAP57 scored two-siRNA summed score (-2 to +2) = 0. With knock-down of PRKCG, the screen gave two-siRNA summed score (-2 to +2) = 0. After knock-down of MYOM2, the screen gave two-siRNA summed score (-2 to +2) = -1. AACSP1 scored two-siRNA summed score (-2 to +2) = 0.

C14orf132 showed two-siRNA summed score (-2 to +2) = 0. Against DUSP12 the deposit lists two-siRNA summed score (-2 to +2) = 0. Depletion of ZNF561 gave: two-siRNA summed score (-2 to +2) = 0. With knock-down of LOC400547 the results were two-siRNA summed score (-2 to +2) = 0. For CDH23 the deposit lists two-siRNA summed score (-2 to +2) = 0. Knock-down of LOC401937 came out at: two-siRNA summed score (-2 to +2) = 2 (active).

FBXO21 scored two-siRNA summed score (-2 to +2) = 0. For SLCO1A2 the deposit lists two-siRNA summed score (-2 to +2) = 0. For AFF1, the entry reads two-siRNA summed score (-2 to +2) = 0. With knock-down of LOC441049, the screen gave two-siRNA summed score (-2 to +2) = 1. Knock-down of POU4F1 gave: two-siRNA summed score (-2 to +2) = 1. ZNF22 gave two-siRNA summed score (-2 to +2) = 1.

HCAR3 showed two-siRNA summed score (-2 to +2) = 0. After knock-down of CDK18 the results were two-siRNA summed score (-2 to +2) = 0. After knock-down of NRROS, the record shows two-siRNA summed score (-2 to +2) = 0.

In a second layout: 2 of the entries above.
target gene	two-siRNA summed score (-2 to +2)
SLCO1A2	0
AFF1	0
